From US20200164046A1
These are yes or no findings as the source states them, for the method shown. For part of these data: In cells and extracts the contact can be indirect. Some binding calls cover weakened binding; strength is not graded here. For part of these data: Sequences can lack the tags named with a protein.

Chains of the proteins cited; added tags and fusions are not shown.
UniProt P31749: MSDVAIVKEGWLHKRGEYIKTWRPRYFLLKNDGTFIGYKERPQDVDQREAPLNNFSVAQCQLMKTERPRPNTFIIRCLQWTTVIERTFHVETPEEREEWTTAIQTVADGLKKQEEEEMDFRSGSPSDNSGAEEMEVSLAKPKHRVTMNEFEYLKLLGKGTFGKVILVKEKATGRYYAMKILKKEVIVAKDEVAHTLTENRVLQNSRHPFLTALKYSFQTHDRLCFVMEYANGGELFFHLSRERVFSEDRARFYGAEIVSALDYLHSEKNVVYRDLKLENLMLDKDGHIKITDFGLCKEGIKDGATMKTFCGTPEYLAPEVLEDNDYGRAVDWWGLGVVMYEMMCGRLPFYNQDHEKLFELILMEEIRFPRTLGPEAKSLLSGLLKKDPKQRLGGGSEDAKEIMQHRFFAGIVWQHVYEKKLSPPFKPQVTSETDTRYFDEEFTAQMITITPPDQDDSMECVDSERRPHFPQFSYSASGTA

Key:
[1] = target: Akt1 (endogenous, in lysates of human Caco-2 or SW620 colon cancer cells) (human) (UniProt P31749); assay: GST pull-down of Akt1, against the GST control
[2] = target: Akt1 (endogenous, in lysates of human Caco-2 or SW620 colon cancer cells) (human) (UniProt P31749); assay: GST pull-down of Akt1 from cell lysate by GST-FAK truncations on beads, western blot
[3] = target: Akt1 (endogenous, in lysates of human Caco-2 or SW620 colon cancer cells) (human) (UniProt P31749); assay: GST pull-down of Akt1 by truncated versions of NT1-2-2
[4] = target: Akt1 (endogenous, in lysates of human Caco-2 or SW620 colon cancer cells) (human) (UniProt P31749); assay: GST pull-down of Akt1 by truncated versions of NT1-2-2, densitometry normalised to NT1-2-2
[5] = target: Akt1 (endogenous, in lysates of human Caco-2 or SW620 colon cancer cells) (human) (UniProt P31749); assay: competition: free peptide against GST-FAK-NT1 beads for Akt1 in a pull-down (n=4)
[6] = target: Akt1 (endogenous, in lysates of human Caco-2 or SW620 colon cancer cells) (human) (UniProt P31749); assay: competition: free peptide against GST-FAK-NT1 beads for Akt1 in a pull-down; binding to Akt1 is shown only through the competition
[7] = target: Akt1 (endogenous, in lysates of human Caco-2 or SW620 colon cancer cells) (human) (UniProt P31749); assay: competition: free peptide at 160 µM against full length GST-FAK beads for Akt1 in a pull-down (n=12-14)
[8] = target: Akt1 (endogenous, in lysates of human Caco-2 or SW620 colon cancer cells) (human) (UniProt P31749); assay: competition: free peptide against full length GST-FAK beads for Akt1 in a pull-down; binding to Akt1 is shown only through the competition

Binder | binding [3] | binding [4] | binding [7] | binding [8] | further results
EVHWVHLDMGVSSVREKYELAHPPEEWKYELRI (peptide, not shown: a dimerising Fc or GST) [GST-FAK-NT1-2-2 (FAK residues 94-126)] | – | – | – | – | binding [1]: binds; binding [2]: binds
VSSVREKYELAHPPEE (peptide, not shown: a dimerising Fc or GST) [GST-FAK NT1-2-2 Truncation 2 (β-strand 4 and β-strand 5 truncated)] | binds | binds | – | – | –
LAHPPEEWKYELRI (peptide, not shown: a dimerising Fc or GST) [GST-FAK NT1-2-2 Truncation 3 (β-strand 4 and α-helix 2 truncated)] | binds | binds | – | – | –
LAHPPEE (peptide, not shown: a dimerising Fc or GST) [GST-FAK NT1-2-2 Truncation 4 (β-strand 4, β-strand 5 and α-helix 2 truncated; short helix LAHPPEE)] | binds | binds | – | – | –
EVHWVHLDMGVSSVREKYELAHPPEEWKYELRI [Pep-FAK-NT1-2-2 (wild-type 33 amino acid peptide)] | – | – | – | – | binding [5]: binds; binding [6]: binds

Continued, in another order:

binding [3] | binding [4] | binding [7] | binding [8] | Binder | further results
binds | binds | – | – | VSSVREKYELAHPPEEWKYELRI (peptide, not shown: a dimerising Fc or GST) [GST-FAK NT1-2-2 Truncation 1 (β-strand 4 truncated)] | –
– | – | binds | binds | LAHPPEE [wild-type FAK short helix peptide LAHPPEE] | –
– | – | binds | binds | LAHPSEE [mutant FAK short helix peptide LAHPSEE] | –
– | – | binds | binds | AAHCGEE [mutant FAK short helix peptide AAHCGEE] | –
